We go through 4 substances from publication PMC10000386.

Sequences of proteins named here, by UniProt entry; tags and fusion partners are left off. A change or cut given only in a name is not applied to a line headed by its entry.
UniProt Q07812: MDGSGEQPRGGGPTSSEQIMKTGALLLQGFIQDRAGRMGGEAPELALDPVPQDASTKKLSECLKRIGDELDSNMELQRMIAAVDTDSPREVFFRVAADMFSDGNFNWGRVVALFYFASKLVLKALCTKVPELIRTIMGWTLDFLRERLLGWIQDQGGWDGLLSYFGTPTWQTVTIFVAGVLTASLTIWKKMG
UniProt Q9BXH1: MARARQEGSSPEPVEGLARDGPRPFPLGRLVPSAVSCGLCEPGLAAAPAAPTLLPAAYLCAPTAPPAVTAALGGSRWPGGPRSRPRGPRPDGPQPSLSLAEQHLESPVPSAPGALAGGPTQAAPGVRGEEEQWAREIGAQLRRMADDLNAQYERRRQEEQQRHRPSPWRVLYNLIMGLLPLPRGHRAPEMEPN
UniProt P10415: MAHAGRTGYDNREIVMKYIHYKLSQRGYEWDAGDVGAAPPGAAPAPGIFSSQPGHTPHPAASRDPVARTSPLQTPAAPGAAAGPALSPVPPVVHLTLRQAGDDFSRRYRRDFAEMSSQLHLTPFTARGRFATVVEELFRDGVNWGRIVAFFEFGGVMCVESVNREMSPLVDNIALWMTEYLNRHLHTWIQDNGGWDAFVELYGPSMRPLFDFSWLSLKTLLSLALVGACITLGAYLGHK

Results are given in words; binding and its absence hold for the method and conditions named. In cells and extracts the contact can be indirect. A result given as binding can be weak or reduced; the word gives no strength.

Common to all, as to experiment: split reporter; BiFC: VN- and VC-Venus fragment fusions (N-terminal) co-transfected in HeLa cells with an mRFP vector, 30 µM Z-VAD-fmk, 37 °C, 24 h; Venus/mRFP mean fluorescence ratio of mRFP-positive cells by flow cytometry; in some experiments ABT-199, A-1155463 or S63845 added 1 h after transfection (reduced the complexes of Bcl-2, Bcl-XL or Mcl-1 with Bim, Puma and Noxa)
Background: Flow cytometry measures light scatter and fluorescence of single cells or particles in a stream.

For assay [1], the target named is Bak ΔBH3 (human) (UniProt Q16611).
For assay [2], the target named is Bak ΔH1α (human) (UniProt Q16611).
Assay [3] deals with Bax ΔBH3 (human) (UniProt Q07812).
The target of assay [4] is Bak (human) (UniProt Q16611).
For assay [5], the target named is T1, Bak H164A (human) (UniProt Q16611).
T1 sequence: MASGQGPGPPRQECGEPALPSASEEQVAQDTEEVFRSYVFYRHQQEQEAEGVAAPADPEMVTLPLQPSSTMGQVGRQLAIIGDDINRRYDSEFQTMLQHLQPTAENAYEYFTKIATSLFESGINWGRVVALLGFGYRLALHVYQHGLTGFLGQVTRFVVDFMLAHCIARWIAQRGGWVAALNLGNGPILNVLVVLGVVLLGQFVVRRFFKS

Turning to Puma (from UniProt Q9BXH1 1-193), the binding entry in assay [1], in assay [2] and in assay [3] was “binds” each time.

Take Bak ΔH1α (from UniProt Q16611): in assay [4], the binding entry was “binds”.

Take Bak ΔBH3 (from UniProt Q16611): the binding result in assay [4], in assay [5] and in assay [2] was “binds” in each case.

On to Bcl-2 (from UniProt P10415 1-239), for which the binding entry in assay [3] is given as “binds”.
